Measurements reported in PubChem BioAssay AID1259299 (Sanger Institute, 2017).
In all, the deposit lists 794 reagents; this is a part drawn at random. 9 of all reagents (1.1%) were called active. 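Calls rest on knock-down alone; synergy scores play no part in calls, and no gene passed the synergy cut.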 Viability is capped at 1. Further read-outs or replicates are left out here. The record does not give: the amount of reagent, the time to read-out.

Purpose: 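Essential genes and drug-synergistic partners among kinases and colorectal mutation genes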 (primary screen)
Cell system: human CAR1 colorectal cancer cells
Knock-down reagent: siRNA pool against human genes
Challenge: anchor drug BYL719 1 µM, cetuximab 5 µg/ml or trametinib 10 nM, or DMSO vehicle alone; exposure length not given
Read-out: 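Mean replicate viability versus non-targeting controls, turned into robust z-scores, plus drug synergy scores for BYL719, cetuximab and trametinib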
Reading the numbers: viability robust z-score, knock-down alone and viability, knock-down alone (DMSO): higher = more viable cells
Hit rule: 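Essential when viability robust z-score with knock-down alone (DMSO) is below -3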
Meaning of the calls: active = essential (knock-down alone); inactive = no change

| gene symbol | viability robust z-score, knock-down alone | viability, knock-down alone (DMSO) (fraction of control) | Call |
| --- | --- | --- | --- |
| HK2 | -0.471 | 0.884 | inactive |
| DCLK1 | 0.789 | 1 | inactive |
| MOK | 0.789 | 1 | inactive |
| MAP3K9 | -0.0329 | 0.924 | inactive |
| COQ8B | 0.789 | 1 | inactive |
| LATS2 | 0.789 | 1 | inactive |
| STRADA | 0.789 | 1 | inactive |
| PRKCZ | -0.782 | 0.855 | inactive |
| ACVR2B | -0.273 | 0.902 | inactive |
| HUNK | -1.33 | 0.804 | inactive |
| FOXP1 | -0.601 | 0.872 | inactive |
| NTRK1 | 0.234 | 0.949 | inactive |
| PTK6 | 0.789 | 1 | inactive |
| CDC42BPA | -0.161 | 0.912 | inactive |
| ULK2 | -0.117 | 0.916 | inactive |
| PRKCI | 0.67 | 0.989 | inactive |
| AK2 | 0.789 | 1 | inactive |
| TEC | -0.295 | 0.9 | inactive |
| MAP2K6 | 0.789 | 1 | inactive |
| MAP2K5 | 0.789 | 1 | inactive |

Sorted by “viability robust z-score, knock-down alone” (descending): some entries from above
| gene symbol | viability robust z-score, knock-down alone | viability, knock-down alone (DMSO) (fraction of control) | Call |
| --- | --- | --- | --- |
| FOXP1 | -0.601 | 0.872 | inactive |
| HUNK | -1.33 | 0.804 | inactive |
